Construct, isoform or probe ends are uncertain for at least one entry. For some assays here: A negative result means that nothing was seen under these conditions. For some assays here: The comparison behind a weaker result is the experiment's own reference, which may not be listed here.
Columns and labels:
[1] = target: T1, TipsytheTRex immunity repressor (WT of study stock) (Mycobacteriophage TipsytheTRex (cluster A)) (UniProt A0A2D1GKF7); assay: SEC-SAXS-MALS; settings: recombinant protein, protein details: N-terminal His6 (pET28a)
[2] = target: T1, TipsytheTRex immunity repressor (WT of study stock) (Mycobacteriophage TipsytheTRex (cluster A)); assay: EMSA; settings: EMSA: 20 mM Tris pH 7.0, 25 mM NaCl, 1 mM DTT, 100 ug/mL BSA, 5% glycerol, 0.25 uM FAM-DNA, room temperature 30 min, 5% native gel in 1x TAE; recombinant protein; protein details: N-terminal His6 (pET28a); label: 3'-FAM on strand 2
[3] = target: TipsytheTRex repressor HTH domain (Mycobacteriophage TipsytheTRex (cluster A)) (UniProt A0A2D1GKF7); assay: EMSA; settings: up to 25 uM, no specific binding; EMSA: 20 mM Tris pH 7.0, 25 mM NaCl, 1 mM DTT, 100 ug/mL BSA, 5% glycerol, 0.25 uM FAM-DNA, room temperature 30 min, 5% native gel in 1x TAE; recombinant protein; protein details: pET28a (NdeI/XhoI), nickel-purified; label: 3'-FAM on strand 2
[4] = test system: TipsytheTRex repressor HTH domain + TipsytheTRex repressor Stoperator domain; assay: EMSA; settings: the two domains mixed in trans, no specific binding; EMSA: 20 mM Tris pH 7.0, 25 mM NaCl, 1 mM DTT, 100 ug/mL BSA, 5% glycerol, 0.25 uM FAM-DNA, room temperature 30 min, 5% native gel in 1x TAE; recombinant protein; label: 3'-FAM on strand 2
[5] = target: TipsytheTRex repressor K81A (Mycobacteriophage TipsytheTRex (cluster A)) (UniProt A0A2D1GKF7); assay: EMSA; settings: up to 5 uM, severe defect, similar to R108A; EMSA: 20 mM Tris pH 7.0, 25 mM NaCl, 1 mM DTT, 100 ug/mL BSA, 5% glycerol, 0.25 uM FAM-DNA, room temperature 30 min, 5% native gel in 1x TAE; recombinant protein; protein details: N-terminal His6 (pET28a); label: 3'-FAM on strand 2
[6] = target: TipsytheTRex repressor R108A (Mycobacteriophage TipsytheTRex (cluster A)) (UniProt A0A2D1GKF7); assay: EMSA; settings: up to 5 uM, no specific complex; EMSA: 20 mM Tris pH 7.0, 25 mM NaCl, 1 mM DTT, 100 ug/mL BSA, 5% glycerol, 0.25 uM FAM-DNA, room temperature 30 min, 5% native gel in 1x TAE; recombinant protein; protein details: N-terminal His6 (pET28a); label: 3'-FAM on strand 2
[7] = target: TipsytheTRex repressor R108Q (Mycobacteriophage TipsytheTRex (cluster A)) (UniProt A0A2D1GKF7); assay: EMSA; settings: up to 5 uM, severe defect, similar to R108A; EMSA: 20 mM Tris pH 7.0, 25 mM NaCl, 1 mM DTT, 100 ug/mL BSA, 5% glycerol, 0.25 uM FAM-DNA, room temperature 30 min, 5% native gel in 1x TAE; recombinant protein; protein details: N-terminal His6 (pET28a); label: 3'-FAM on strand 2
[8] = target: TipsytheTRex repressor R45A (Mycobacteriophage TipsytheTRex (cluster A)) (UniProt A0A2D1GKF7); assay: EMSA; settings: up to 5 uM, severe defect, similar to R108A; EMSA: 20 mM Tris pH 7.0, 25 mM NaCl, 1 mM DTT, 100 ug/mL BSA, 5% glycerol, 0.25 uM FAM-DNA, room temperature 30 min, 5% native gel in 1x TAE; recombinant protein; protein details: N-terminal His6 (pET28a); label: 3'-FAM on strand 2
[9] = target: TipsytheTRex repressor Stoperator domain (Mycobacteriophage TipsytheTRex (cluster A)) (UniProt A0A2D1GKF7); assay: EMSA; settings: up to 25 uM, no specific binding; EMSA: 20 mM Tris pH 7.0, 25 mM NaCl, 1 mM DTT, 100 ug/mL BSA, 5% glycerol, 0.25 uM FAM-DNA, room temperature 30 min, 5% native gel in 1x TAE; recombinant protein; protein details: pET28a (NdeI/XhoI), nickel-purified; label: 3'-FAM on strand 2
[10] = target: TipsytheTRex repressor W50A (Mycobacteriophage TipsytheTRex (cluster A)) (UniProt A0A2D1GKF7); assay: EMSA; settings: up to 5 uM, small amount of specific complex, not quantified; EMSA: 20 mM Tris pH 7.0, 25 mM NaCl, 1 mM DTT, 100 ug/mL BSA, 5% glycerol, 0.25 uM FAM-DNA, room temperature 30 min, 5% native gel in 1x TAE; recombinant protein; protein details: N-terminal His6 (pET28a); label: 3'-FAM on strand 2
[11] = target: T1, TipsytheTRex immunity repressor (WT of study stock) (Mycobacteriophage TipsytheTRex (cluster A)); assay: X-ray crystallography; settings: native; recombinant protein; protein details: N-terminal His6 (pET28a)
[12] = target: TipsytheTRex repressor, selenomethionine (Mycobacteriophage TipsytheTRex (cluster A)) (UniProt A0A2D1GKF7); assay: X-ray crystallography; settings: selenomethionine; recombinant protein; protein details: N-terminal His6 (pET28a)

Sequence: GGTGGCTGTCAAG (double strand) [13-bp SEC-SAXS-MALS]
- binding result ([1]; no stable complex): no binding

Sequence: CTTGACAGCCACC (double strand) [13-bp consensus, FAM]
- binding result [2]: no binding

Sequence: ACCCTGGAGAAATCCCCTAGCCCAGCCAGC (double strand) [30-bp random (no consensus)]
- binding result [2]: no binding

Sequence: TGTTTCGGTGGCTGTCAAGCGGGC (double strand) [24-bp SEC-SAXS-MALS]
- binding result ([1]; monomer:DNA complex): binds

Sequence: ACGGCCCGCTTGACAGCCACCGAAACATCC (double strand) [30-bp optimal]
- binding result [3]: no binding
- binding result [4]: no binding
- binding result [5]: no binding
- binding result [6]: no binding
- binding result [7]: no binding
- binding result [8]: no binding
- binding result [9]: no binding
- binding result [10]: binds more weakly

Sequence: TTTCGGTGGCTGTCAAGCGGG (double strand) [21-bp crystallization]
- binding result [11]: binds
- binding result [12]: binds

Source: publication PMC9283540
